Assay results as given in PubChem BioAssay AID1487 (National Center for Advancing Translational Sciences (NCATS), 2009).
Some of the results follow. These are further read-outs of the screen, such as a control signal, another cell line or another target. No call is given for them. Compounds called inactive in the main read-out are mostly missing here. Potencies come from curve fits of mixed quality, noted in brackets.

Assay: qHTS Assay for Modulators of Lamin A Splicing
Settings: HeLa LMNA splicing GFP/RFP minigene ratio, 48 h
Outline: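 S3 HeLa cells stably expressing lamin A-EGFP splicing minigene plus DsRed2, 600 cells/well, 48 h compound exposure at 37C. Laser-scanning cytometry; analysed as GFP (500-530 nm)/RFP (575-640 nm) total intensity ratio; 0.5% DMSO vehicle.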

[1] = measured here: RFP viability control channel
[2] = measured here: GFP splicing reporter channel

| Compound | AC50 [1] | AC50 [2] |
| --- | --- | --- |
| CCOc1ccc(CNC(=O)Cn2nc(C)c3nn(-c4ccc(Cl)cc4)c(C)c3c2=O)cc1OC | 0.0224 µM [falling, full curve, poor fit] | – |
| c1ccc2c(CC3=NCCN3)cccc2c1 | 2 µM [falling, single point] | 1.41 µM [falling, single point] |
| N=c1c2c(-c3ccccc3)c(-c3ccccc3)n(Cc3ccco3)c2ncn1Cc1ccccc1 | 20 µM [falling, partial curve] | 17.8 µM [falling, partial curve] |
| CC(=O)OCC(=O)[C@@]12OC(C)(C)O[C@@H]1C[C@H]1[C@@H]3C[C@H](F)C4=CC(=O)C=C[C@]4(C)[C@@]3(F)[C@@H](O)C[C@@]12C | – | 0.631 µM [rising, full curve, poor fit] |
| CCN(CC)S(=O)(=O)c1cccc(C(=O)N/N=C(\C)c2ccc(O)cc2O)c1 | 11.2 µM [rising, single point] | – |
| CN1C/C(=C/c2cccnc2)C(=O)/C(=C/c2cccnc2)C1 | 35.5 µM [rising, single point] | – |
| CCC(=O)N1CCN(c2cc(N3CCN(C)CC3)c(F)cc2[N+](=O)[O-])CC1 | 11.2 µM [rising, partial curve] | – |
| C[C@@H](NCCc1ccc(O)cc1)[C@@H](O)c1ccc(O)cc1 | – | 0.01 µM [rising, full curve, poor fit] |
| COc1cc(NC(=O)c2cccc3c2C(=O)N(Cc2cccnc2)C3)cc(OC)c1OC | 7.94 µM [rising, partial curve, poor fit] | – |
| CCCC[C@H](CC)CN=C(N)NC(N)=NCCCCCCN=C(N)NC(N)=NC[C@@H](CC)CCCC | 10 µM [falling, partial curve] | 8.91 µM [falling, partial curve] |
| Cc1cccc(C(=O)N2CCC(Cc3ccccc3)CC2)c1[N+](=O)[O-] | 22.4 µM [rising, partial curve] | – |
| Cn1c(N)c(C(=O)COC(=O)c2cccnc2Cl)c(=O)n(C)c1=O | – | 0.158 µM [rising, full curve, poor fit] |
| CC(=O)C(=Nc1ccc(Cl)cc1Cl)NNc1cccc(Cl)c1 | – | 14.1 µM [rising, partial curve, poor fit] |
| O=C(N/N=C/c1ccc2c(c1)OCO2)c1ccc2c(c1)OCCO2 | 17.8 µM [rising, single point] | 17.8 µM [rising, single point] |
| O=C(Nc1nc(N2C(=O)c3ccccc3C2=O)n(-c2ccccc2)n1)c1ccc(F)cc1 | 10 µM [falling, partial curve] | – |
| COc1ccc(S(=O)(=O)N2CCC(C(=O)c3ccc4c(c3)OCCO4)CC2)cc1 | 10 µM [rising, partial curve, poor fit] | – |
| O=C(COc1ccccc1F)Nc1ccccc1OCc1cc(=O)n2ccccc2n1 | – | 7.94 µM [falling, partial curve, poor fit] |

| Compound | AC50 [1] | AC50 [2] |
| --- | --- | --- |
| Cc1ccc(C(=O)N/C(=C/c2cccnc2)C(=O)O)cc1 | 31.6 µM [falling, partial curve, poor fit] | 0.00355 µM [falling, full curve, poor fit] |
| O=C(CCNC(=O)c1ccccc1Cl)Nc1ccc(Br)c(C(F)(F)F)c1 | 22.4 µM [rising, single point] | 28.2 µM [rising, single point] |
| COc1ccc(-n2c(-c3ccc(Cl)cc3)c[n+]3c2CCc2ccccc2-3)cc1 | 28.2 µM [rising, single point] | – |
| Nc1ncnc2nc(Sc3ccc(Cl)cc3)[nH]c12 | 35.5 µM [rising, single point] | – |
| COc1ccc(-n2c(=O)c(-c3cccs3)nc3cnc(Nc4ccccc4)nc32)cc1 | 12.6 µM [falling, partial curve] | 20 µM [falling, partial curve] |
| O=C(/C=C/c1ccc(N2CCCCC2)c([N+](=O)[O-])c1)c1ccc(O)cc1 | 10 µM [falling, partial curve] | 12.6 µM [falling, partial curve] |
| Cc1cc(C2=NNC(=NC3CC3)SC2)c(C)n1Cc1ccco1 | 4.47 µM [falling, single point] | 2.51 µM [falling, partial curve] |
| Ic1ccc(N2CCN(Cc3c[nH]c4ncccc34)CC2)cc1 | 0.00447 µM [falling, full curve, poor fit] | 0.00501 µM [falling, full curve, poor fit] |
| CCc1cccc(CC)c1NC(=O)COC(=O)/C(C#N)=C/c1ccc(OC)cc1 | – | 25.1 µM [rising, single point] |
| Cc1ccc(C(=O)c2c(C)oc3c2C(=O)C(=O)c2ccccc2-3)cc1 | 20 µM [falling, partial curve] | 15.8 µM [falling, single point] |
| Cc1cccc(-n2cc(-c3ccccc3)c3c(NC(C)C)ncnc32)c1 | 35.5 µM [falling, single point] | 35.5 µM [falling, single point] |
| O=C1CN(c2nc(-c3cccs3)nc3sc4c(c23)CCCC4)CCN1 | 0.708 µM [rising, partial curve, poor fit] | 6.31 µM [rising, partial curve] |
| CCOC(=O)N1CCN(C(=O)CCc2ccc(S(=O)(=O)NCCc3ccccc3)cc2)CC1 | 31.6 µM [rising, single point] | 14.1 µM [rising, single point] |
| COc1ccc(C(OC(=O)c2ccco2)C(=O)NC2CCCCC2)cc1OC (stereo not drawn) | 31.6 µM [rising, single point] | – |
| Cc1ccsc1/C=N/NC(=O)CC(=O)NCC(C)C | 0.0316 µM [falling, full curve, poor fit] | – |
| COc1ccc(/C=N\NS(=O)(=O)c2ccc(C)cc2)cc1COc1ccccc1[N+](=O)[O-] | 35.5 µM [rising, single point] | 17.8 µM [rising, single point] |

Sorted by molar mass (smallest number first): 3 of the compounds above

| Compound | AC50 [1] | AC50 [2] |
| --- | --- | --- |
| Cc1cccc(-n2cc(-c3ccccc3)c3c(NC(C)C)ncnc32)c1 | 35.5 µM [falling, single point] | 35.5 µM [falling, single point] |
| COc1ccc(C(OC(=O)c2ccco2)C(=O)NC2CCCCC2)cc1OC (stereo not drawn) | 31.6 µM [rising, single point] | – |
| COc1ccc(-n2c(=O)c(-c3cccs3)nc3cnc(Nc4ccccc4)nc32)cc1 | 12.6 µM [falling, partial curve] | 20 µM [falling, partial curve] |
